This passage reports binding results from PMC11481185.

Results are given in words; binding and its absence hold for the method and conditions named. In cells and extracts the contact can be indirect. Binding calls can cover weak binding; strength is not graded here. Sequences can lack the tags named with a protein.

In the experiment the target is T1, FLAG-tagged CD93 (UniProt O89103).
T1 sequence: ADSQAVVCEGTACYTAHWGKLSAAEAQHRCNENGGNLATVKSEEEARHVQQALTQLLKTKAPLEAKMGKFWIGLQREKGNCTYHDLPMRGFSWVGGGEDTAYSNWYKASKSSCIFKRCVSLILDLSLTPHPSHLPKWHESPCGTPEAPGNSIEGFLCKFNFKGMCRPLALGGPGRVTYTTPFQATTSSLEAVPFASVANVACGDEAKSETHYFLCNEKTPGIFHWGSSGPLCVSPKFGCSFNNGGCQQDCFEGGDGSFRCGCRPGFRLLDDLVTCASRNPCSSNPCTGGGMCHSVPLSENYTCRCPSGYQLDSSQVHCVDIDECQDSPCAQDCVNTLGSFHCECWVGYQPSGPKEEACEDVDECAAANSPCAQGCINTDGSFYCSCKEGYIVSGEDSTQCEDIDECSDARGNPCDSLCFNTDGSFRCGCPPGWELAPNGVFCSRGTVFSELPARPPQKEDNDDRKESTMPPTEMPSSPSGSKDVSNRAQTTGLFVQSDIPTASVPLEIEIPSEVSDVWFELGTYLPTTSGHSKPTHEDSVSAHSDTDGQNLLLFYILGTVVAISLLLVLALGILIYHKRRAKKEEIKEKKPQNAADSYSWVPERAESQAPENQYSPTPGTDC
Description: co-IP; transfected cells lysed in CO-IP lysis buffer with protease inhibitor cocktail and PMSF; supernatant incubated with anti-HA-tag or anti-Flag-tag magnetic beads at 4 °C overnight; washed three times; bound proteins analysed by western blot.

For HA-tagged IL17D (ligand), the binding result is recorded as “binds”.
